Reference: PMC9727282
No constants are given. Whether binding was seen depends on the method and setting. For some assays here: Binding seen in cells or lysates may run through a third protein.

By UniProt entry, the sequences of proteins in these tests, tags left out.
UniProt Q01650: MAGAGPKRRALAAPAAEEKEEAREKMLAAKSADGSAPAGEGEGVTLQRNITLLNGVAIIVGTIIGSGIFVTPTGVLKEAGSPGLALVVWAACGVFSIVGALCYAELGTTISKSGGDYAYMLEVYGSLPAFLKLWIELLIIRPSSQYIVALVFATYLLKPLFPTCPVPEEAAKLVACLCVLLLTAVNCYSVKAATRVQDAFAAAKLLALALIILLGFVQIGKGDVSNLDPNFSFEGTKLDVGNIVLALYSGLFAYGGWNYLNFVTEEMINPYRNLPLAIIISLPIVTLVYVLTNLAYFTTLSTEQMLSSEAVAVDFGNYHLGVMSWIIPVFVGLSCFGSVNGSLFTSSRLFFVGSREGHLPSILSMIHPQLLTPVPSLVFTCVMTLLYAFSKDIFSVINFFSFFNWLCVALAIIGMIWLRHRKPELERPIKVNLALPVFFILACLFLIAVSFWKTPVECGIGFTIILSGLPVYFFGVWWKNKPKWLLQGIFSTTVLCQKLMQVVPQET
UniProt P17028: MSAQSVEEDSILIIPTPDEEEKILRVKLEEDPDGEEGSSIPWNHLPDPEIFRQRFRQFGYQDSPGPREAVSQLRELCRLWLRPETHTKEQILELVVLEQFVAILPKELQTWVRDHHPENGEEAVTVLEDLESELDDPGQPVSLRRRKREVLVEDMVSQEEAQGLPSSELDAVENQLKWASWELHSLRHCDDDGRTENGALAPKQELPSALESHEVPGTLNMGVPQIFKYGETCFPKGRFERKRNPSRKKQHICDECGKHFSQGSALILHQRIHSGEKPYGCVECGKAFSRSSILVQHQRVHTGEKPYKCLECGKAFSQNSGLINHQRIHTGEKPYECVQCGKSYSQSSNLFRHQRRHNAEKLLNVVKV

What was measured:
SLC7A5-myc (human) = SLC7A5-myc (human) (UniProt Q01650); experiment: pull-down; SLC7A5-myc and ZNF24-3×Flag cotransfected into HEK293T; lysate on anti-Myc or anti-Flag magnetic beads overnight at 4 °C; elution with c-Myc or 3×Flag peptide
SLC7A5-pGBKT7 (human) = SLC7A5-pGBKT7 (human) (UniProt Q01650); experiment: two-hybrid; SLC7A5-pGBKT7 and ZNF24-pGADT7 cotransformed into yeast AH109; spots on SD-TL, SD-TLH, SD-TLHA, SD-TLHA + x-α-Gal

| binding (SLC7A5-myc (human)) | binding (SLC7A5-pGBKT7 (human)) | Substance |
| --- | --- | --- |
| no binding | – | ZNF24-3×Flag (from UniProt P17028 1-368) |
| – | no binding | ZNF24-pGADT7 (from UniProt P17028 1-368) |
